Laboratory results from PubChem BioAssay AID256 (DTP/NCI, 2004).
The list is a part of this screen's results and no random one: it gathers tests that were run many times, whatever their T/C, doses with no T/C, and many T/C values between a quarter and a half above the control. Other doses and runs of a compound stand elsewhere. T/C is the treated group as % of the vehicle group. Some doses have a count of surviving animals in place of a T/C: the source files T/C as zero there, which appears to mark a toxic dose or a test without result, not a measured value. Some doses without a T/C left all or most animals alive at the check, yet need not have been tolerated: the source hardly ever lists a survival T/C far under the control, and the zero likely stands for such cases as well. Counts of survivors are from the toxicity check (mostly the fifth day) where no day follows; animals may have died later. Schedules are NCI's codes, taken here to give the interval after Q, in days (D) or hours (H), and the number of doses after X. Some entries were tested several times; the values are given in rising order. For survival time, this PubChem deposit counts one and a half times the control or more as active, and values a quarter to a half above the control carry no call in these data; other NCI protocols may use other cut-offs. Some T/C values carry the count of animals alive at the toxicity check (mostly the fifth day); without a count, all were alive then.

Tested on: CD2F1 mice, L1210 leukemia ip, survival T/C
Test: NCI In Vivo Anticancer Drug Screen. Data for tumor model L1210 Leukemia (intraperitoneal) in CD2F1 (CDF1) mice
Conditions: higher T/C = longer survival
Method in brief: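 Transplantable tumor in mice; compound-treated vs vehicle-treated groups. Read-out = treated/control ratio of the measured endpoint.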

[1] = T/C endpoint: mean survival time, dose: 100.0 mg/kg/injection, schedule: Q04DX003 (ip), vehicle: saline with Tween-80
[2] = T/C endpoint: mean survival time, dose: 200.0 mg/kg/injection, schedule: Q04DX003 (ip), vehicle: saline with Tween-80
[3] = T/C endpoint: mean survival time, dose: 400.0 mg/kg/injection, schedule: Q04DX003 (ip), vehicle: saline with Tween-80

Question: How did the survivor count (T/C endpoint: mean survival time, dose: 400.0 mg/kg/injection, schedule: Q01DX009 (ip), vehicle: other) turn out when `CCN(N=O)C(=O)N(Cc1ccccc1)Cc1ccccc1` was run?
Answer: Its survivor count is 2 of 5.

Question: What does the source list for `Cc1cc(CSC(=N)N)c(C)cc1CSC(=N)N`?
Answer: survivor count [1]: 0 of 6; survivor count [2]: 0 of 6; survivor count [3]: 0 of 6

Question: Which results are given for `O=[N+]([O-])c1ccc(N/N=C/CCl)c([N+](=O)[O-])c1`?
Answer: survivor count [1]: 1 of 6; survivor count [2]: 0 of 6; survivor count [3]: 0 of 6

Question: For `C[N+](C)(C)CC1CO1` (configuration not stated), which survivor count (T/C endpoint: mean survival time, dose: 400.0 mg/kg/injection, schedule: Q04DX003 (ip), vehicle: saline) is on record?
Answer: Its survivor count is 1 of 6.

Question: For `CC(=N)c1ccc(C)cc1`, which survivor count (T/C endpoint: mean survival time, dose: 100.0 mg/kg/injection, schedule: Q01DX001 (ip), vehicle: saline sonified) is on record?
Answer: Its survivor count is 2 of 6.

Question: And the survivor count (T/C endpoint: mean survival time, dose: 200.0 mg/kg/injection, schedule: Q01DX001 (ip), vehicle: saline sonified)?
Answer: The survivor count was 0 of 6.

Question: And the survivor count (T/C endpoint: mean survival time, dose: 400.0 mg/kg/injection, schedule: Q01DX001 (ip), vehicle: saline sonified)?
Answer: Its survivor count is 0 of 6.

Question: How did the survivor count (T/C endpoint: mean survival time, dose: 200.0 mg/kg/injection, schedule: Q04DX003 (ip), vehicle: acetone) turn out when `C#CCOC1CCCCC1O` (configuration not stated) was run?
Answer: Its survivor count is 1 of 6.

Question: And the survivor count (T/C endpoint: mean survival time, dose: 400.0 mg/kg/injection, schedule: Q04DX003 (ip), vehicle: acetone)?
Answer: Its survivor count is 0 of 6.

Question: How did the T/C (T/C endpoint: mean survival time, dose: 6.25 mg/kg/injection, schedule: Q01DX009 (ip), vehicle: Klucel (hydroxypropylcellulose) (HPC)) turn out when `CCOC(=O)CCC(NC(=O)c1cc(Cl)c(N(CC)Cc2cnc3nc(N)nc(N)c3n2)c(Cl)c1)C(=O)OCC` (configuration not stated) was run?
Answer: Its T/C is 135 % of control.

Question: And the T/C (T/C endpoint: mean survival time, dose: 12.5 mg/kg/injection, schedule: Q01DX009 (ip), vehicle: Klucel (hydroxypropylcellulose) (HPC))?
Answer: Its T/C is 147 % of control.

Question: With `CCN(CC)CCCNc1cc(OC)cc2nc3cc(Cl)ccc3nc12` as the compound, how does the survivor count (T/C endpoint: mean survival time, dose: 200.0 mg/kg/injection, schedule: Q01DX009 (ip), vehicle: suspension in saline) read?
Answer: Its survivor count is 0 of 6.

Question: With `O=C(O)c1cc(-c2ccc(Cl)cc2)nc2c1ccc1ccccc12` as the compound, how does the survivor count (T/C endpoint: mean survival time, dose: 400.0 mg/kg/injection, schedule: Q01DX001 (ip), vehicle: saline) read?
Answer: The survivor count was 1 of 6.

Question: How did the survivor count (T/C endpoint: mean survival time, dose: 40.0 mg/kg/injection, schedule: Q01DX009 (ip), vehicle: saline with Tween-80) turn out when `COC(CCl)(CCl)OC` was run?
Answer: The survivor count was 6 of 6.

Question: For `CC1=CC2C(O)(CC(CO)=CC3C4C(C)(C)C4(OC(=O)c4ccccc4)C(OC(=O)c4ccccc4)C(C)C32O)C1=O` (configuration not stated), which survivor count (T/C endpoint: median survival time, dose: 2.0 mg/kg/injection, schedule: Q01DX009 (ip), vehicle: saline with Tween-80) is on record?
Answer: The survivor count was 2 of 6.

Question: Which survivor count (T/C endpoint: mean survival time, dose: 6.25 mg/kg/injection, schedule: Q01DX005 (ip), vehicle: other) does the source give for `C[CH2][Sn]1([CH2]C)[O]C2C(CO)OC(n3ccc4c(N)ncnc43)C2[O]1` (configuration not stated) here?
Answer: Its survivor count is 6 of 6.

Question: What about the survivor count (T/C endpoint: mean survival time, dose: 12.5 mg/kg/injection, schedule: Q01DX005 (ip), vehicle: other) of the same compound?
Answer: Its survivor count is 0 of 6 and 2 of 6.

Question: What about the survivor count (T/C endpoint: mean survival time, dose: 25.0 mg/kg/injection, schedule: Q01DX005 (ip), vehicle: other) of the same compound?
Answer: Its survivor count is 0 of 6.

Question: What about the survivor count (T/C endpoint: mean survival time, dose: 50.0 mg/kg/injection, schedule: Q01DX005 (ip), vehicle: other) of the same compound?
Answer: Its survivor count is 0 of 6.

Question: And the survivor count (T/C endpoint: mean survival time, dose: 100.0 mg/kg/injection, schedule: Q01DX005 (ip), vehicle: other)?
Answer: Its survivor count is 0 of 6.

Question: And the survivor count (T/C endpoint: mean survival time, dose: 200.0 mg/kg/injection, schedule: Q01DX005 (ip), vehicle: other)?
Answer: Its survivor count is 0 of 6.

Question: How did the survivor count (T/C endpoint: mean survival time, dose: 200.0 mg/kg/injection, schedule: Q04DX002 (ip), vehicle: saline with Tween-80) turn out when `COc1ccccc1NC(=O)Oc1ccccc1-c1ccccc1` was run?
Answer: Its survivor count is 3 of 3.

Question: And the survivor count (T/C endpoint: mean survival time, dose: 400.0 mg/kg/injection, schedule: Q04DX002 (ip), vehicle: saline with Tween-80)?
Answer: Its survivor count is 3 of 3.

Question: How did the T/C (T/C endpoint: median survival time, dose: 200.0 mg/kg/injection, schedule: Q01DX009 (ip), vehicle: water) turn out when `Cc1noc(N)c1N` was run?
Answer: The T/C was 118, 123, 124, 125 % of control.

Question: And the T/C (T/C endpoint: median survival time, dose: 300.0 mg/kg/injection, schedule: Q01DX009 (ip), vehicle: water)?
Answer: The T/C was 128 % of control.

Question: And the T/C (T/C endpoint: median survival time, dose: 400.0 mg/kg/injection, schedule: Q01DX009 (ip), vehicle: water)?
Answer: The T/C was 126, 133, 142, 143 % of control.

Question: What about the T/C (T/C endpoint: median survival time, dose: 600.0 mg/kg/injection, schedule: Q01DX009 (ip), vehicle: water) of the same compound?
Answer: Its T/C is 146 % of control.

Question: What about the T/C (T/C endpoint: median survival time, dose: 800.0 mg/kg/injection, schedule: Q01DX009 (ip), vehicle: water) of the same compound?
Answer: Its T/C is 134, 148 [5 of 6 alive], 150, 152 % of control [5 of 6 alive].

Question: And the survivor count (T/C endpoint: median survival time, dose: 1200.0 mg/kg/injection, schedule: Q01DX009 (ip), vehicle: water)?
Answer: Its survivor count is 0 of 10, 1 of 6, 3 of 6.

Question: What about the survivor count (T/C endpoint: median survival time, dose: 1600.0 mg/kg/injection, schedule: Q01DX009 (ip), vehicle: water) of the same compound?
Answer: Its survivor count is 0 of 6.

Question: What about the survivor count (T/C endpoint: median survival time, dose: 3200.0 mg/kg/injection, schedule: Q01DX009 (ip), vehicle: water) of the same compound?
Answer: The survivor count was 0 of 6.

Question: For `O=C1C2CC3C1C1(Cl)C(Cl)C4(Cl)C2C3C1(Cl)C4(Cl)Cl` (configuration not stated), which survivor count (T/C endpoint: mean survival time, dose: 150.0 mg/kg/injection, schedule: Q01DX001 (ip), vehicle: other) is on record?
Answer: Its survivor count is 3 of 6.

Question: What about the survivor count (T/C endpoint: mean survival time, dose: 300.0 mg/kg/injection, schedule: Q01DX001 (ip), vehicle: other) of the same compound?
Answer: The survivor count was 0 of 6.
